Data taken from paper PMC2651131.
These are yes or no findings as the source states them, for the method shown. In cells and extracts the contact can be indirect. Some results given as binding are weak or reduced against the parent protein; the word gives no strength.

Protein sequences, listed by entry. Tags and fused reporters are not part of them. Residues count along the entry.
UniProt Q05030, residues 32-1097: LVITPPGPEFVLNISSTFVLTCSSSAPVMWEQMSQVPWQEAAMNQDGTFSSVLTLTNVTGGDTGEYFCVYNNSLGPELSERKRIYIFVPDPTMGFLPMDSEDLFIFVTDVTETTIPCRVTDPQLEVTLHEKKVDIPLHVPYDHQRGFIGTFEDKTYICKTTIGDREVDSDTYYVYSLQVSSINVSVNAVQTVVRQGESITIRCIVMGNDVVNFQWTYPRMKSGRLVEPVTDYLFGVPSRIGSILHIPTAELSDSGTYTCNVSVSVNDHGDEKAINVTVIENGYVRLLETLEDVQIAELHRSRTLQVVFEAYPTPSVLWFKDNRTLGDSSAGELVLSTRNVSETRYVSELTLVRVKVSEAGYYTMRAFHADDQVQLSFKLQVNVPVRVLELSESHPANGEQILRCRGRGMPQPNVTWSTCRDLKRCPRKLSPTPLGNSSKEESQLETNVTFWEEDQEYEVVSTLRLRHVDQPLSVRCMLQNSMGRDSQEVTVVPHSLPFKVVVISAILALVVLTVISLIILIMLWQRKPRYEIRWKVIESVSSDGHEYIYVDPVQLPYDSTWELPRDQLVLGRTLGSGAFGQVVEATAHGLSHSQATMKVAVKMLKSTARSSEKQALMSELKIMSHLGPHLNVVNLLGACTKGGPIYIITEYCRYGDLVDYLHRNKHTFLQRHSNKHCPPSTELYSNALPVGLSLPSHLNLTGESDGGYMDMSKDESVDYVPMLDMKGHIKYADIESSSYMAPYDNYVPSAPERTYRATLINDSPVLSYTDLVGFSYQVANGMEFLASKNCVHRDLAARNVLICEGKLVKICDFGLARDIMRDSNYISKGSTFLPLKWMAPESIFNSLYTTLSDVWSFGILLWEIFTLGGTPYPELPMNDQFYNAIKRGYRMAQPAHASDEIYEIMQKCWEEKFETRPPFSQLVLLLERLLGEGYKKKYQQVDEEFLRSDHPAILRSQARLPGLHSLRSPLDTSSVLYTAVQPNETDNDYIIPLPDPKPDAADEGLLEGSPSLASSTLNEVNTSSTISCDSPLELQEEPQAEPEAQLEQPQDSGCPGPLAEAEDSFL
UniProt E9PT20: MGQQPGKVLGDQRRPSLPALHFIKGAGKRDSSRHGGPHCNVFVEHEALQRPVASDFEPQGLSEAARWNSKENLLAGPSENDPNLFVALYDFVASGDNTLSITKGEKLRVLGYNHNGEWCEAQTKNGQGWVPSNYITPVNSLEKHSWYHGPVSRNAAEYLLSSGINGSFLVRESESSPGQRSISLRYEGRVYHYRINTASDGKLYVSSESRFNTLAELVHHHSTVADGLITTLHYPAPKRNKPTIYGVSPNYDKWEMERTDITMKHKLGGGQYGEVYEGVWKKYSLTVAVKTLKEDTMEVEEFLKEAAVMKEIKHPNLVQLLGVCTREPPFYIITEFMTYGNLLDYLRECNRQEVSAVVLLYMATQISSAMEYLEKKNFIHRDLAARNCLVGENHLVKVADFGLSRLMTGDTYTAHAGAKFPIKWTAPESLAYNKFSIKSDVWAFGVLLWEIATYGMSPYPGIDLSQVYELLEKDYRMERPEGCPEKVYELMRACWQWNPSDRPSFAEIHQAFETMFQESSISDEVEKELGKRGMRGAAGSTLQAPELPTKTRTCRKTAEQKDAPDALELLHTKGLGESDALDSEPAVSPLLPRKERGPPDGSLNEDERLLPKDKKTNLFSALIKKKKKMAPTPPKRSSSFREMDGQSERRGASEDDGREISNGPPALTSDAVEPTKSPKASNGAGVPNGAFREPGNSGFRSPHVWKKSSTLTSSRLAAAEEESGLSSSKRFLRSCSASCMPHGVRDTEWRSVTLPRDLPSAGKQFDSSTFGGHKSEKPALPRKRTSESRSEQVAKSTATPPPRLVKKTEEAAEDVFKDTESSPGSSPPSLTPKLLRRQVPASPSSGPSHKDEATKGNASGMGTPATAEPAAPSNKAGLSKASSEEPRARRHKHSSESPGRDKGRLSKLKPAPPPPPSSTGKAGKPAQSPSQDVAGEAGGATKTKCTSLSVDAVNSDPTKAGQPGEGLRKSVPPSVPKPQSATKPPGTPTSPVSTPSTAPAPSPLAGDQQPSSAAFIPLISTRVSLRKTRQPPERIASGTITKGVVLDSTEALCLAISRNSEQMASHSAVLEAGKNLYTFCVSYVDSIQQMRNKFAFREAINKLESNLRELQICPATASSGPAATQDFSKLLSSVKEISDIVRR

B1: WAVE1 (protein, UniProt Q5BJU7 1-559)
chain: MPLVKRNIDPRHLCHTALPRGIKNELECVTNISLANIIRQLSSLSKYAEDIFGELFNEAHSFSFRVNSLQERVDRLSVSVTQLDPKEEELSLQDITMRKAFRSSTIQDQQLFDRKTLPIPLQETYDVCEQPPPLNVLTPYRDDGKEGLKFYTNPSYFFDLWKEKMLQDTEDKRKEKRKQKQKNLDRPHEPEKVPRAPHDRRREWQKLAQGPELAEDDADLLHKHIEVANGPASHFETRPQTYVDHMDGSYSLSALPFSQMSELLSRAEERVLVRPHEPPPPPPMHAAGDARPTPTCVSSAAGLIENRPQSPAAGRTPVFVSPTPPPPPPPLPSALSTSSLRASMTSTPPPPVPPPPPPPAPALQAPAVPPPPAPLQIAPGVLHPAPPPIAPPLVQPSPPVARAAPVCETVPVHPLPQGEVQGLPPPPPPPPLPPPGIRPSSPVTVAALAHPPSGLHPTPSPAPGPHAPLMPPSPPSQVLPASEPKRHPSTLPVISDARSVLLEAIRKGIQLRKVEEQREQEAKHERIENDVATILSRRIAVEYSDSEDDSEFDEVDWLE

Columns and labels:
[1] = biological target: PDGFβ receptor (rat (endogenous in CA1 hippocampal slices)) (UniProt Q05030); test: co-IP; lysate of rat CA1 hippocampal slices (incubated 10 min without or with 10 ng/mL PDGF-BB), 1% NP-40 buffer; anti-PDGFβ receptor antibody precoupled to agarose beads; blot with anti-Abl
[2] = biological target: Abelson tyrosine kinase (rat (endogenous in CA1 hippocampal slices)) (UniProt E9PT20); test: co-IP; lysate of rat CA1 hippocampal slices (incubated 10 min with vehicle or 10 ng/mL PDGF-BB), 1% NP-40 buffer; anti-Abl antibody and protein A/G beads overnight at 4°C; blot with anti-PLCγ or anti-WAVE1

| Molecule | binding [1] | binding [2] |
| --- | --- | --- |
| Abelson tyrosine kinase (from UniProt E9PT20 1-1143) (enzyme) | binds | – |
| B1 | – | binds |
